This assay has as its target T1, FLAG-tagged MEMB12 (UniProt Q9FK28).
T1 sequence: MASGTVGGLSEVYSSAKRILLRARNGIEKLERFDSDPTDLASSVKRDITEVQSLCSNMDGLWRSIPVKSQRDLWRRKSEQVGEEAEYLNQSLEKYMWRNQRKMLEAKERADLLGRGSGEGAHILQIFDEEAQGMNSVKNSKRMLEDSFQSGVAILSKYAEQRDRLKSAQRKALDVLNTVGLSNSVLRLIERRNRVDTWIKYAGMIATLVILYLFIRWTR
In words: co-IP; HA-AtAGO2 co-expressed with AtXRN4-FLAG or MEMB12-FLAG in N. benthamiana, 72 hpi; leaf extract (20 mM Tris-HCl pH 7.5, 300 mM NaCl, 5 mM MgCl2, 5 mM DTT, 0.5% TWEEN-20) incubated with FLAG beads 4 h; blot with anti-HA.

Results are given in words; binding and its absence hold for the method and conditions named. Binding seen in cells or lysates may run through a third protein. Tags and fused reporters may be left off the sequences shown.

B1: HA-tagged Arabidopsis Argonaute 2 (AtAGO2) (protein, UniProt Q9SHF3 1-1014)
chain: MERGGYRGGRGDGRGRGGRGYGGGGGGGEQGRDRGYGGGEQGRGRGSERGGGNRGQGRGEQQDFRSQSQRGPPPGHGGRGTTQFQQPRPQVAPQPSQAPASYAGSVGGVAGRGAWGRKPQVPSDSASPSTSTTVVSEPVRVAEVMNLKPSVQVATSDRKEPMKRPDRGGVVAVRRVNLYVNHYKVNFNPESVIRHYDVEIKGEIPTKKVSRFELAMVRDKVFTDNPDEFPLAMTAYDGQKNIFSAVELPTGSYKVEYPKTEEMRGRSYTFTIKQVNVLKLGDLKEYMTGRSSFNPRDVLQGMDVVMKEHPSKCMITVGKSFFTRETEPDEDFRFGVIAAKGYRHTLKPTAQGLSLCLDYSVLAFRKAMSVIEYLKLYFNWSDMRQFRRRDVEEELIGLKVTVNHRKNKQKLTIVGLSMQNTKDIKFDLIDQEGNEPPRKTSIVEYFRIKYGRHIVHKDIPCLDLGKNGRQNFVPMEFCDLVEGQIYPKDNLDKDSALWLKKLSLVNPQQRQRNIDKMIKARNGPSGGEIIGNFGLKVDTNMTPVEGRVLKAPSLKLAERGRVVREEPNPRQNNQWNLMKKGVTRGSIVKHWAVLDFTASERFNKMPNDFVDNLIDRCWRLGMQMEAPIVYKTSRMETLSNGNAIEELLRSVIDEASRKHGGARPTLVLCAMSRKDDGYKTLKWIAETKLGLVTQCFLTGPATKGGDQYRANLALKMNAKVGGSNVELMDTFSFFKKEDEVMFIGADVNHPAARDKMSPSIVAVVGTLNWPEANRYAARVIAQPHRKEEIQGFGDACLELVKAHVQATGKRPNKIVIFRDGVSDAQFDMVLNVELLDVKLTFEKNGYNPKITVIVAQKRHQTRFFPATNNDGSDKGNVPSGTVVDTKVIHPYEYDFYLCSHHGGIGTSKPTHYYTLWDELGFTSDQVQKLIFEMCFTFTRCTKPVSLVPPVYYADMVAFRGRMYHEASSREKNFKQPRGASTSAASLASSLSSLTIEDKAIFKLHAELENVMFFV
Regarding B1, the binding entry was “no binding”.

These data come from publication PMC7154835.
